Data as given in the supplement of paper PMC3334620.
Over roughly 33,000 sequences, “E-score (-0.5 to 0.5)” has its median near -0.016; the highest 2% begin near 0.3. Some of the results follow.

Target: T1, Yer184c (UniProt P39961)
T1 sequence: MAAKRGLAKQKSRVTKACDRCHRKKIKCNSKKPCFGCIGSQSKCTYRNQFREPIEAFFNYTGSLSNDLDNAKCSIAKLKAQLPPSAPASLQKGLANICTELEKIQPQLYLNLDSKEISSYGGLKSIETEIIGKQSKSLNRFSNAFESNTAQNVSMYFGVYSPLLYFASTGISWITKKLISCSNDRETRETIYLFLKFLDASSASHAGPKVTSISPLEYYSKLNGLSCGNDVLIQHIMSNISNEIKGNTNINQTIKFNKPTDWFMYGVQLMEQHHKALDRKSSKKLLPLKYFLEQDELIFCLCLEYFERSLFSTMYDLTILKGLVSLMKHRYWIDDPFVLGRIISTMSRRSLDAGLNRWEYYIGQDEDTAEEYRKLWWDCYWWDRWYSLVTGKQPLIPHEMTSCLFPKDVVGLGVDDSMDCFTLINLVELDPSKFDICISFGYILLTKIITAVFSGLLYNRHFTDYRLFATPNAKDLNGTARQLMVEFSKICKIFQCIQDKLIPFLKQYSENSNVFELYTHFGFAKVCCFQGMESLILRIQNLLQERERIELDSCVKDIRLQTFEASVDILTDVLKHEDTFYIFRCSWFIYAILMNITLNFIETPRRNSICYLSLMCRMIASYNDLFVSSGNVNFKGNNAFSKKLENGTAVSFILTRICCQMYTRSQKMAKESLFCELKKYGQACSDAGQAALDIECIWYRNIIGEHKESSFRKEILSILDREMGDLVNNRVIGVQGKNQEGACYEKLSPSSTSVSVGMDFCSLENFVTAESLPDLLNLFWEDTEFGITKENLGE
Test: PBM E-score (8-mer binding enrichment) (E-score (-0.5 to 0.5)); higher = stronger / more preferred TF binding
Conditions: protein concentration: 100 nM; construct: GST-full length
Method in brief: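 Masliner-normalised scans of fluorescent anti-GST signal were the basis for scoring. That signal came from GST-tagged yeast transcription factors applied at about 100-200 nM to double-stranded universal all-10-mer Agilent arrays on fresh or once-stripped slides. Each ungapped eight-base word, pooled with its reverse complement, received an E-score from the Universal PBM Analysis Suite.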

Sequence	PBM E-score
AACGCCCT	-0.246
CAACAGCG	-0.182
CAAATCGC	-0.0704
CTTAAGTC	-0.0503
GAGGGACC	-0.317
CAAGGAGA	-0.126
AAAACGAT	-0.0684
CCGAACCG	0.329
AGCGACAT	-0.0945
ATTATACA	0.147
GCCGGCAC	0.422
GGATGCAC	-0.121
ATTCGAAA	0.0914
AGTTGGTC	-0.0511
GGGGCCAC	-0.226
ACAGAAAG	-0.0226
AGAGTGTC	0.219
ATATGCAT	0.0424
GTATAGTA	0.115
CAGGTCCC	-0.231
AGCACATG	0.089
CTCAAAGA	-0.0579
GGCGGTGA	-0.124
ACCTTTAC	-0.0262
CGCGCCCA	-0.0609

Sequence	PBM E-score
TAACTTAA	0.231
TATCAACA	0.0798
ACGGCTAA	0.233
GCAGTCGA	-0.114
AACAGTGC	-0.091
CTTAATAA	0.205
GAGACAAA	-0.086
CACGAGTG	-0.162
GAAATAAC	0.198
CATAGTCG	-0.0259
CTGGTAGC	-0.148
AAGAATGC	0.00719
CGTATTGA	-0.0164
ACCCTCCG	-0.182
ACCGGACG	0.305
GTGGTAAC	0.0465
AGCGCTTG	-0.0179
CGTCAAAA	0.129
ATATGGAA	0.00789
TAAAAATA	0.28
AATCTCGT	0.0258
CCTCACAA	0.158
AGTTCAGC	-0.0919
ATGAAGTA	-0.0122
CGATTGGA	-0.0892

Sequence	PBM E-score
GTCGTCAA	0.05
GAATATAC	0.0307
CAAGGACA	-0.0757
AACAACAG	0.0934
ATATCTTG	0.0464
GGGCACTA	-0.185
ACTATAAA	0.145
AATCGACG	-0.101
CAGCGTTC	-0.12
AATGTATA	0.126
GCATGGAA	0.0947
ACGTGACA	-0.138
ACTACTCT	-0.069
GACCGAGC	0.101
ACTGGACA	0.0365
ACACCGAA	0.221
GTCCGTCA	0.179
AGCGTCTA	-0.152
AGAAACCT	-0.118
CTTCAAAA	0.137
CAGTCAGC	-0.19
AAAATGGA	0.189
GAATCGAA	0.151
ACTCAATA	0.146
CATGTACG	-0.0476

Sequence	PBM E-score
GCTTTATA	-0.0149
GCAATAAC	-0.0207
GACCGACA	0.0769
ATAGTATA	0.0999
AATAGGAC	-0.12
AATCGTAC	0.0599
AACACTAT	0.28
AGTGTCAC	-0.0331
AGAGTAAG	-0.0171
CCGTGCAA	0.107
GGATGACC	-0.201
AGCAGCAC	-0.0879
TACAACTA	0.171
ATGAAACA	0.02
AGGGGTCG	-0.34
CTGCTGAA	0.0515
CTGTCGTC	0.0244
GACCAGCC	0.0563
CCCTATGA	-0.143
CCATTGCG	-0.16
CTCATTAA	0.067
TCATTGGA	0.0906
AAGGCACT	-0.145
TGAGACAA	0.0341
ATGCGGTG	-0.161

Sequence	PBM E-score
CCTTGAAA	0.0146
GAACCATA	0.0328
ATAAGCAA	0.059
TGAGTACA	-0.0144
ATTGCACG	0.187
CTCCCTGC	-0.323
ACACCTCG	0.0317
GAGGACGA	0.0407
TGATGAAA	0.0197
GCAGGAAA	-0.0351
CCGGTAGC	0.0055
CTCAGTTA	0.102
CGAAGAAC	0.186
AATTAGTA	0.196
AGTCTCTA	-0.251
CGGTCGAG	0.0745
GTGCGAGA	0.0313
CTCTCTCC	-0.261
CTGGCAAG	-0.105
CAGTAGAG	-0.209
AGCTTATG	0.0779
ATTATCTC	0.0272
CGGTTCGA	0.232
AGAGCCGG	0.314
TAAGGAAA	0.147

Sequence	PBM E-score
ATTGTTAC	0.218
GGTGCAAC	0.0255
GAGTCGGA	0.113
CACGACCG	-0.16
AGGACGCG	0.0161
ACGCCGAG	0.328
AGCTCGCG	0.0686
AAAAGACG	0.0892
ACAAGTTA	0.0555
ACGTCTGC	-0.215
ATGAAGAA	0.127
GCTCATAC	-0.149
GAAAGCCC	-0.00607
AGTCTATG	-0.26
ATCAAGCA	-0.0731
CTGCGGTC	-0.0472
TATGACGA	-0.0329
CCAGTATA	-0.0509
CCTTAAAA	0.00433
ATCCATAG	-0.138
GGCTGGTA	-0.0436
AGGTGCAG	-0.134
CCATCGGG	0.0347
AGTTGTGC	-0.0294
CCGATTCC	0.164

Sequence	PBM E-score
ATACTGGC	-0.23
GAATTCTC	0.146
AGAGCCCA	-0.127
AACGTGGT	-0.158
GATCCACC	-0.199
ATTCGGGC	0.141
CTACTCAC	0.00961
ACTCCACA	-0.122
AACGGTTG	-0.0137
AGACGGAA	0.277
ACGAATTA	0.124
GAGTATAA	0.198
TCCCTAAA	-0.0674
AAAGTGAA	-0.0362
GTAATTTA	0.162
GCGCGGAC	0.126
CCCAATGC	-0.287
CCCTGGTC	-0.308
ACCTGAAT	0.114
ACCAAAGG	-0.218
CGTTTTAA	0.144
CTAGATTC	-0.0473
